# Measurements reported in PubChem BioAssay AID1259327 (Drosophila RNAi Screening Center, 2017).
# Purpose: 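Knock-downs altering cellular ATP with no metal added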
# System: Drosophila S2R+ cells
# Reagents: long dsRNA against Drosophila genes
# Time to read-out: 5 days (water added on day 4, read one day later)
# Challenge: water added as vehicle, no metal, one day before read-out
# Measured: 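Luciferase ATP signal per well, normalised to plate mean, duplicate average converted to z-score across plates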
# Reading the numbers: ATP z-score: higher = more total ATP than typical wells; ATP luminescence: higher = more total ATP
# Rule for the call: 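a hit is any knock-down whose absolute ATP z-score is greater than 1.5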
# Meaning of the calls: active = hit: ATP up or down; inactive = no clear ATP change
# The whole screen tested about 3,100 reagents; shown is an unselected part. 378 of them (12%) were called active. 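Hits include both directions; z-score sign shows ATP rise or fall; raw luminescence values are not plate-normalised.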 The numbers tell different reagents against one gene apart. Not stated in the record: the amount of reagent.
predicted target,reagent,"ATP z-score, duplicate mean","ATP luminescence, replicate 1 (RLU)","ATP luminescence, replicate 2 (RLU)",Outcome
Sur,1,2.07,5.91e5,6.60e5,active
Sur,2,-0.278,7.62e5,8.64e5,inactive
Gr33a,1,-0.367,6.86e5,6.88e5,inactive
Gr33a,2,-0.444,4.60e5,4.09e5,inactive
Prestin,1,0.000146,9.47e5,8.47e5,inactive
Sec61alpha,1,2.36,6.78e5,6.08e5,active
Nup358,1,-2.64,5.40e5,4.72e5,active
ppk17,1,0.122,7.01e5,7.76e5,inactive
ppk17,2,1.86,5.44e5,6.41e5,active
CG32091,1,0.674,9.60e5,1.01e6,inactive
CG32091,2,0.532,4.85e5,5.50e5,inactive
Ca-Ma2d,1,2.26,7.47e5,7.96e5,active
ste24b,1,0.228,6.44e5,6.36e5,inactive
ste24b,2,-0.477,7.32e5,8.51e5,inactive
CG7990,1,0.386,6.44e5,9.34e5,inactive
CG7990,2,1.29,7.07e5,6.70e5,inactive
CG7990,3,-1.7,8.75e5,1.04e6,active
Loxl1,1,-1.08,6.26e5,6.87e5,inactive
out,1,0.122,7.56e5,6.81e5,inactive
out,2,-1.02,7.83e5,6.25e5,inactive
Alg7,1,-1.18,3.57e5,4.38e5,inactive
Alg7,2,1.24,8.45e5,8.71e5,inactive
PIG-Q,1,1.05,7.33e5,6.95e5,inactive
PIG-Q,2,0.132,4.68e5,4.55e5,inactive
Pdfr,1,-0.404,6.81e5,6.00e5,inactive
Pdfr,2,-1.5,4.19e5,3.26e5,inactive
Sr-CII,1,0.397,7.00e5,6.11e5,inactive
Sr-CII,2,-0.201,8.09e5,8.42e5,inactive
Cad74A,1,0.333,9.95e5,8.86e5,inactive
pyx,1,0.18,6.45e5,8.87e5,inactive
pyx,2,1.08,7.87e5,7.90e5,inactive
Mpv17,1,-1.23,6.43e5,6.87e5,inactive
Tsp42A,1,-0.28,5.95e5,5.94e5,inactive
Tsp42A,2,2.07,8.42e5,6.70e5,active
CG31522,1,-1.96,5.55e5,7.06e5,active
CG31522,2,-0.762,4.55e5,5.76e5,inactive
Tsp42Ek,1,-0.677,5.64e5,5.52e5,inactive
Tsp42Ek,2,0.327,5.72e5,6.57e5,inactive
Inx6,1,0.0489,7.70e5,7.24e5,inactive
Inx6,2,0.498,9.16e5,9.08e5,inactive
CNT1,1,0.538,5.35e5,8.02e5,inactive
CNT1,2,-0.609,7.73e5,7.28e5,inactive
Sema1a,1,-0.361,7.07e5,6.69e5,inactive
Ptp69D,1,-0.457,8.10e5,8.60e5,inactive
Ptp69D,2,0.23,6.33e5,5.64e5,inactive
Ptp69D,3,-1.19,4.96e5,4.61e5,inactive

Part of the list above, set out differently.
Tsp42A #1
- ATP z-score, duplicate mean: -0.28
- ATP luminescence, replicate 1 (RLU): 5.95e5
- ATP luminescence, replicate 2 (RLU): 5.94e5
- Outcome: inactive

Tsp42A #2
- ATP z-score, duplicate mean: 2.07
- ATP luminescence, replicate 1 (RLU): 8.42e5
- ATP luminescence, replicate 2 (RLU): 6.70e5
- Outcome: active

CG31522 #1
- ATP z-score, duplicate mean: -1.96
- ATP luminescence, replicate 1 (RLU): 5.55e5
- ATP luminescence, replicate 2 (RLU): 7.06e5
- Outcome: active

CG31522 #2
- ATP z-score, duplicate mean: -0.762
- ATP luminescence, replicate 1 (RLU): 4.55e5
- ATP luminescence, replicate 2 (RLU): 5.76e5
- Outcome: inactive

Tsp42Ek #1
- ATP z-score, duplicate mean: -0.677
- ATP luminescence, replicate 1 (RLU): 5.64e5
- ATP luminescence, replicate 2 (RLU): 5.52e5
- Outcome: inactive
